These results are taken from the supplement of paper PMC11006884.

Amino acid sequences for entries named in this document (tags omitted). A change or cut given only in a name is not applied to a line headed by its entry.
UniProt Q13643: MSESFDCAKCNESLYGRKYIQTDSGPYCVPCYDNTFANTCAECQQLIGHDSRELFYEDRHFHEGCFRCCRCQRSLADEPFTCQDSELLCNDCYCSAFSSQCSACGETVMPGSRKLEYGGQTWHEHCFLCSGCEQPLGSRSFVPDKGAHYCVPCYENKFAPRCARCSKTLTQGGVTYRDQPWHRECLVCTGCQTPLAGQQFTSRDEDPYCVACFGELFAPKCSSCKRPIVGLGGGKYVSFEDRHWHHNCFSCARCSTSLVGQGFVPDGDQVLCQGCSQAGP
UniProt Q14204, whole entry, looked up: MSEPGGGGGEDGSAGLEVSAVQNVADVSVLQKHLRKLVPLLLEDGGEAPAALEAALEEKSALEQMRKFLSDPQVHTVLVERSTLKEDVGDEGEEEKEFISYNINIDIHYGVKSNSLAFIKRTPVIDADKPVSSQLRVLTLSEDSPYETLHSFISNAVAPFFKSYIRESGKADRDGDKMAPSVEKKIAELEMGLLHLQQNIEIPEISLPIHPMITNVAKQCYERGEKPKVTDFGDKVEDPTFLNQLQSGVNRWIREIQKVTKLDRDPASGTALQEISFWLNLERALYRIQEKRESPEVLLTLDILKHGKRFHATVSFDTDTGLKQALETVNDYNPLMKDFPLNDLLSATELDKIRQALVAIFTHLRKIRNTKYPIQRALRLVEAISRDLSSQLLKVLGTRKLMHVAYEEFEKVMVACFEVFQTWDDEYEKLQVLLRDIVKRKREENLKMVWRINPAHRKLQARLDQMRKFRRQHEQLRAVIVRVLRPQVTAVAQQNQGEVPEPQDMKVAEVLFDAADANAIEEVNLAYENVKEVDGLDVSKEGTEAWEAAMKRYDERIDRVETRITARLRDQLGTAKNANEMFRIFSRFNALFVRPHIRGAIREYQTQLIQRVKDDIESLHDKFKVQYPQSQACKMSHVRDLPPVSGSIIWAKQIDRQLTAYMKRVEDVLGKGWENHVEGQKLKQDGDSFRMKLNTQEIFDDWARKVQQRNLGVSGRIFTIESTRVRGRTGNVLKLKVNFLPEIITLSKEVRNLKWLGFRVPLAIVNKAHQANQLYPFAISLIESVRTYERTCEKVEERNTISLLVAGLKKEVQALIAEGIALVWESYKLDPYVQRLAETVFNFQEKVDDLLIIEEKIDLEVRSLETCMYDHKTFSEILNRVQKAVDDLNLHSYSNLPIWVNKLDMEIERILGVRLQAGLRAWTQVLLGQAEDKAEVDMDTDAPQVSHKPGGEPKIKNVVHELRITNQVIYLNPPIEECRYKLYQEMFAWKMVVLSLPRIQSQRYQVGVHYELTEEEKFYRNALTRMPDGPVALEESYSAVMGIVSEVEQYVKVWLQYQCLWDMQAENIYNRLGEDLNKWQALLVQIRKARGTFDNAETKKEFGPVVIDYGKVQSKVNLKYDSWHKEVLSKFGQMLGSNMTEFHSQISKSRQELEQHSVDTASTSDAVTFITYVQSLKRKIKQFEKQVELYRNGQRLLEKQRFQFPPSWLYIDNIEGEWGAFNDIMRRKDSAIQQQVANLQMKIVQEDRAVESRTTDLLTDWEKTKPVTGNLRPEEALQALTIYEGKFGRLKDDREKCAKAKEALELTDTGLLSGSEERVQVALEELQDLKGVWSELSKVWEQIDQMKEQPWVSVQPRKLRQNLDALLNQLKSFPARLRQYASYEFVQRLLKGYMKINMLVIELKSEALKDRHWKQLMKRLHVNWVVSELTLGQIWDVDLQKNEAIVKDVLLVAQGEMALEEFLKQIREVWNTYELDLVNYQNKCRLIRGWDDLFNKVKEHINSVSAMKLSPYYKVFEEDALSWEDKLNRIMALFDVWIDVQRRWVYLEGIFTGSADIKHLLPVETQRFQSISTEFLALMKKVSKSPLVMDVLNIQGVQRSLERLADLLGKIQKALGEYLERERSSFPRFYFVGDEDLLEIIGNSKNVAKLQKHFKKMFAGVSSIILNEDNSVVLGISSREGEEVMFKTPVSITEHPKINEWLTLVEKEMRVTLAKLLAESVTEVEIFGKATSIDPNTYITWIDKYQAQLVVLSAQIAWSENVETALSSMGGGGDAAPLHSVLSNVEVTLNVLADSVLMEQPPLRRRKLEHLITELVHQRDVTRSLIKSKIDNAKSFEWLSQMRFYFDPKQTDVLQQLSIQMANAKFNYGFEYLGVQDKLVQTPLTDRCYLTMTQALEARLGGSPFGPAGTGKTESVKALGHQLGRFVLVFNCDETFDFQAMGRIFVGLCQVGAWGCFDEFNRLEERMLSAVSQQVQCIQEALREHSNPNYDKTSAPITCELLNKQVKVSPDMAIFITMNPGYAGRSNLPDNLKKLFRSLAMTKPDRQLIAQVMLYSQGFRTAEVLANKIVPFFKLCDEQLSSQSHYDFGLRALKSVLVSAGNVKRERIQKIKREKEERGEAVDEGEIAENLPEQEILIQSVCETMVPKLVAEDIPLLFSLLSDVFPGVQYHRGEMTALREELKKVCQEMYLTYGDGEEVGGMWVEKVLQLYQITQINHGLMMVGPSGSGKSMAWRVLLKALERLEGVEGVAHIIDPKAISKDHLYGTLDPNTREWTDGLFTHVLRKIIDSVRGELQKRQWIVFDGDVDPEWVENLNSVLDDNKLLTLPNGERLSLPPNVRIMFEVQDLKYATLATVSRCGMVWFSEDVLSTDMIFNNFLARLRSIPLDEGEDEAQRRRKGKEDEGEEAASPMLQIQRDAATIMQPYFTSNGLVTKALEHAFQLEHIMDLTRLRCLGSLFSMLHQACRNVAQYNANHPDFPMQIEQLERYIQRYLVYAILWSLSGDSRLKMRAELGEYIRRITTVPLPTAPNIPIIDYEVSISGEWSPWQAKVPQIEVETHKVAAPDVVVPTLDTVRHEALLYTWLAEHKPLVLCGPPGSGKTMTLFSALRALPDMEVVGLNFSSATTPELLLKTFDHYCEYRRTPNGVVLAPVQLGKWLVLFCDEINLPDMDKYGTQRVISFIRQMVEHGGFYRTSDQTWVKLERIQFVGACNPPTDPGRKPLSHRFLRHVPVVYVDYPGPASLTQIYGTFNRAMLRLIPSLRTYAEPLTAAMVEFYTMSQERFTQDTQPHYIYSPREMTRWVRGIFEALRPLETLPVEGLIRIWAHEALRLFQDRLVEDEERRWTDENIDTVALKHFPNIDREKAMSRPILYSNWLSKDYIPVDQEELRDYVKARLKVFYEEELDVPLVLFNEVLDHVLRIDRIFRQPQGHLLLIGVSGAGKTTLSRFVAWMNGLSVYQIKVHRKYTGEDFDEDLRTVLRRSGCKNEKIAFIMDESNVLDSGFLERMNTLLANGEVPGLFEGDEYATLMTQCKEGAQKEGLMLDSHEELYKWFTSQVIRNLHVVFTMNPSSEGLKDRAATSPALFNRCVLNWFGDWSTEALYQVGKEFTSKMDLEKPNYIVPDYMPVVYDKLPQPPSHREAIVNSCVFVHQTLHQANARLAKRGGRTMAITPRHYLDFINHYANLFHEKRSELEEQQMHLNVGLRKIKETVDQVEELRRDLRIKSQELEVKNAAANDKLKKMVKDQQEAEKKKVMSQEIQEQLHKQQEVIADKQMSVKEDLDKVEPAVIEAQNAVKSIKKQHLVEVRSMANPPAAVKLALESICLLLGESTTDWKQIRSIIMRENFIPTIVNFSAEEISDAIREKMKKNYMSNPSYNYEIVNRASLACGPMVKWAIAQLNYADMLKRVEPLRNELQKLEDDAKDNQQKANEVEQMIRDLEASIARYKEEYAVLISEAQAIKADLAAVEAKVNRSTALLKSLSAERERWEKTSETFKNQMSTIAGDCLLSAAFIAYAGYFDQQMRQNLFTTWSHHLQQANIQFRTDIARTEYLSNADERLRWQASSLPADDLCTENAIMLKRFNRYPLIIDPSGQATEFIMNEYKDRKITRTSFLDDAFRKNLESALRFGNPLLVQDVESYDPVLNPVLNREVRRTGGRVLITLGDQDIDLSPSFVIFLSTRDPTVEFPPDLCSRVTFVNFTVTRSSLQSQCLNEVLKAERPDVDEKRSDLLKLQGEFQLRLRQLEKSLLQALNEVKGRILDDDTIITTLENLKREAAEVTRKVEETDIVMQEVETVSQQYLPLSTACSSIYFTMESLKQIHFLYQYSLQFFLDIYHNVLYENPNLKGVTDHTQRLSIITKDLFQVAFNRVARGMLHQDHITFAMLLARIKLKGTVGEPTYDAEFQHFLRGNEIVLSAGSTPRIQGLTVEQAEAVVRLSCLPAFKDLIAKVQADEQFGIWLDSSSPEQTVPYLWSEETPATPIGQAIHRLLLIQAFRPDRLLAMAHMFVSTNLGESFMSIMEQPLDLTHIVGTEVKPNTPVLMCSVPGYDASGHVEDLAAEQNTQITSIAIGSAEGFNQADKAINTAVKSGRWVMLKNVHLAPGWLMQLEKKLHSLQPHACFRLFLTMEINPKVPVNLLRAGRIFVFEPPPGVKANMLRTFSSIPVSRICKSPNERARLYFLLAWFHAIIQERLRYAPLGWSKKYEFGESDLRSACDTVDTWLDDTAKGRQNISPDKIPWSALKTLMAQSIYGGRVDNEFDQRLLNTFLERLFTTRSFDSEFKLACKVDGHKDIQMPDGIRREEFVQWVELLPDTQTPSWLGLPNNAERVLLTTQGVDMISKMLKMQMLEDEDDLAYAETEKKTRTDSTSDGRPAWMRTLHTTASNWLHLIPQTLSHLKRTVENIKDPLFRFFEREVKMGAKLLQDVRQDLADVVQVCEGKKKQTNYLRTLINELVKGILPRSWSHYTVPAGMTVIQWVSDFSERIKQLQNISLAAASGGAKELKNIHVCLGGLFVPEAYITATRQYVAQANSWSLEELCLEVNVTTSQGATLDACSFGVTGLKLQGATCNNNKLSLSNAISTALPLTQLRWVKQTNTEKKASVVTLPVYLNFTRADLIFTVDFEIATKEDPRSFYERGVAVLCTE
UniProt Q13642: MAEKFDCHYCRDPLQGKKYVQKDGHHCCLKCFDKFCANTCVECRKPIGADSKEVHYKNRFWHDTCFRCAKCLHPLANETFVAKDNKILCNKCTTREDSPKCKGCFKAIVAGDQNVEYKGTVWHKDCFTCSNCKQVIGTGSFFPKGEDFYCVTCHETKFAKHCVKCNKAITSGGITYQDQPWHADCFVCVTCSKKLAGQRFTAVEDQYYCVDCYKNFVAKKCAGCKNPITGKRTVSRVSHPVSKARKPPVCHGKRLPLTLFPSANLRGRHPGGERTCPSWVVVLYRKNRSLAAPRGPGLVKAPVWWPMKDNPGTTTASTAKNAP
UniProt Q14974, whole entry, looked up: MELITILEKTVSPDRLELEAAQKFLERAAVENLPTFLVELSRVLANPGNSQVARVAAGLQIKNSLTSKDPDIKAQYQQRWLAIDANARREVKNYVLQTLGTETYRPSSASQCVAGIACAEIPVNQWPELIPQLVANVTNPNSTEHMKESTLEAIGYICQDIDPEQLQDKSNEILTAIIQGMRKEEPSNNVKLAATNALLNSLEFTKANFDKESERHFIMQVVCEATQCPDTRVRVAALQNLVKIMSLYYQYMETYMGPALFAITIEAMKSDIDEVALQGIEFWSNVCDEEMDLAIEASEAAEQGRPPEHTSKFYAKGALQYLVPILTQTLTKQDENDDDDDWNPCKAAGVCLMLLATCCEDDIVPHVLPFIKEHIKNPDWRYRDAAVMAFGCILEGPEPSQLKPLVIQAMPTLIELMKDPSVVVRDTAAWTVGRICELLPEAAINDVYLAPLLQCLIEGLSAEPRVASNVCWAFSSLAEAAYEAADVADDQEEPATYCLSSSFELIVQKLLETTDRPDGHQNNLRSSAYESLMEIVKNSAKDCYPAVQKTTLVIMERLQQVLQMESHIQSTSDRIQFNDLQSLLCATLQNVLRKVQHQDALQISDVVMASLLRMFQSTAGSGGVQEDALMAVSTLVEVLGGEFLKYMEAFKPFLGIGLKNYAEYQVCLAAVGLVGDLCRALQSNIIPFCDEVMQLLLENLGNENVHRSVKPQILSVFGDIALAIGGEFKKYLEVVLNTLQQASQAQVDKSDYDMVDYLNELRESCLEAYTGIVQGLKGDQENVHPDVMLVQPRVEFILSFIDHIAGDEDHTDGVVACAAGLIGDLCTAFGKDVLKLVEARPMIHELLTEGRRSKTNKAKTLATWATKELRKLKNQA
UniProt Q13561, whole entry, looked up: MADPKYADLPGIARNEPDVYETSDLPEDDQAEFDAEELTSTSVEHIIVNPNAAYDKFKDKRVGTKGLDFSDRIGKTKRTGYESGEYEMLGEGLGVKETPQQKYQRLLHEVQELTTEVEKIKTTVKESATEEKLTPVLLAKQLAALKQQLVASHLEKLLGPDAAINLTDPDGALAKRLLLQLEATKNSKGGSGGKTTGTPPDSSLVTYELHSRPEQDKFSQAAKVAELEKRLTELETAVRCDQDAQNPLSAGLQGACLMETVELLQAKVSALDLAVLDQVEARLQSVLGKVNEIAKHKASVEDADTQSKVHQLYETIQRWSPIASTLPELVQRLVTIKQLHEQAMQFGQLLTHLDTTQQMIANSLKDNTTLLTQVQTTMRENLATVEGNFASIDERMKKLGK

Compound in this experiment: COC(=O)C#Cc1ccccc1 [methyl 3-phenylpropiolate]
Description: log2 ratio of iodoacetamide-alkyne labeling of the cysteine site, DMSO over compound (competition); higher = stronger covalent engagement of the cysteine by the compound, active = 1 or more. Conditions: 500 µM; treatment time 1 h; system: HEK293T cell lysate. In a few lines:
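HEK293T lysate (2 mg/mL) was incubated with electrophile (500 µM) or vehicle for 1 h at ambient temperature and then with iodoacetamide alkyne for 1 h. Labelled proteins were clicked to sCIP-TMT reagents, pooled, digested, enriched on streptavidin and measured by Orbitrap Eclipse LC-MS/MS with FAIMS, with FragPipe quantification. The per-cysteine log2 competition ratio is mean control-channel reporter intensity over mean compound-channel reporter intensity. Across three replicates with duplicate channels, cysteines quantified in only one replicate were excluded.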

Only a part is listed here, and it is no random draw.

With FHL3 C10 (UniProt Q13643), the “log2 ratio of iodoacetamide-alkyne labeling” value (shortened to “log2 ratio”) was inactive: -0.0308.

With GAMT C220 (UniProt Q14353), the “log2 ratio” value is inactive: 0.215.

As to NUMA1 C1729 (UniProt Q14980), the “log2 ratio” value is inactive: 0.16. Take BOP1 C108 (UniProt Q14137): the “log2 ratio” value was inactive: 0.697.

As to DYNC1H1 C1977 (UniProt Q14204), the “log2 ratio” value was inactive: 0.124. Consider EIF3A C478 (UniProt Q14152), for which the “log2 ratio” value was inactive: 0.28. Regarding FHL1 C71 (UniProt Q13642), the “log2 ratio” value was inactive: 0.0627.

For DGKZ C540 (UniProt Q13574), the “log2 ratio” value is inactive: -0.0853. With NUMA1 C2009 (UniProt Q14980), the “log2 ratio” value was inactive: 0.381. To GNL2 C336 (UniProt Q13823) belongs inactive: 0.66. MCM6 C302 (UniProt Q14566): the “log2 ratio” value was inactive: 0.0739. With ITPR1 C530 (UniProt Q14643) the figure was inactive: 0.211; with DYNC1H1 C2712 (UniProt Q14204), inactive: 0.254; with RAPGEF1 C817 (UniProt Q13905), inactive: 0.406. With NAE1 C384 (UniProt Q13564) the figure was inactive: -0.115; with NCAPH C296 (UniProt Q15003), inactive: 0.0103. Turning to FHL2 C132 (UniProt Q14192), the “log2 ratio” value is inactive: 0.0991. With RRP1B C583 (UniProt Q14684) the figure was inactive: 0.481; with KPNB1 C436 (UniProt Q14974), inactive: 0.582; with DYNC1H1 C3033 (UniProt Q14204), inactive: 0.0176. To RBM39 C478 (UniProt Q14498) belongs inactive: 0.467; to GAMT C91 (UniProt Q14353), inactive: 0.223. As to DYNC1H1 C4216 (UniProt Q14204), the “log2 ratio” value was inactive: 0.162. Turning to KPNB1 C585 (UniProt Q14974), the “log2 ratio” value was inactive: 0.0601. With POLA2 C198 (UniProt Q14181) the figure was inactive: 0.169; with BMS1 C556 (UniProt Q14692), inactive: 0.441; with CTTN C112 (UniProt Q14247), inactive: 0.88. For FHL1 C191 (UniProt Q13642), the “log2 ratio” value is inactive: -0.117.

For the target SQSTM1 C131 (UniProt Q13501), the “log2 ratio” value is inactive: 0.051. With BOP1 C404 (UniProt Q14137), the “log2 ratio” value was inactive: 0.271.

With ATR C1343 (UniProt Q13535), the “log2 ratio” value was inactive: 0.114. As to DCTN2 C256 (UniProt Q13561), the “log2 ratio” value is inactive: 0.566. For AAMP C428 (UniProt Q13685), the “log2 ratio” value is inactive: -0.0534.

For the target GAPVD1 C1129 (UniProt Q14C86), the “log2 ratio” value was inactive: 0.233. With KPNB1 C689 (UniProt Q14974) the figure was inactive: 0.138; with UniProt Q15019_C114, inactive: 0.189. On to CHD4 C1121 (UniProt Q14839), for which the “log2 ratio” value is inactive: 0.176. To SART3 C537 (UniProt Q15020) belongs inactive: 0.142. To FHL1 C185 (UniProt Q13642) belongs inactive: -0.145; to MAP7 C644 (UniProt Q14244), inactive: 0.593; to NPAT C551 (UniProt Q14207), inactive: 0.356.

With STIM1 C49 (UniProt Q13586), the “log2 ratio” value is inactive: 0.691. For the target PRPF4B C962 (UniProt Q13523), the “log2 ratio” value is inactive: 0.222.

Regarding TTLL12 C528 (UniProt Q14166), the “log2 ratio” value was inactive: -0.155. Take CBX2 C222 (UniProt Q14781): the “log2 ratio” value is inactive: 0.267. With ITPR3 C2668 (UniProt Q14573) the figure was inactive: 0.381; with PRPSAP1 C19 (UniProt Q14558), inactive: 0.506; with DYNC1H1 C3573 (UniProt Q14204), inactive: 0.325. As to NUMA1 C1136 (UniProt Q14980), the “log2 ratio” value was inactive: 0.0168. As for POLA2 C590 (UniProt Q14181), the “log2 ratio” value is inactive: 0.158. To DYNC1H1 C2076 (UniProt Q14204) belongs inactive: 0.0469. In the case of NUMA1 C1907 (UniProt Q14980), the “log2 ratio” value was inactive: 0.551.
